The nature of this data set: peptide synthesis. Particulars: late stage modification step.

Substance “(4S,7S,10S,13S,Z)-10-Benzyl-7,13-diisobutyl-14-((S)-2-methyloxiran-2-yl)-1-morpholino-2,5,8,11,17-pentaoxo-4-phenethyl-3,6,9,12,15,16-hexaazahenicos-14-en-21-oic acid” displayed a step yield of 29%.

These data come from patent publication US9309283B2 (Onyx Therapeutics, Inc., priority 2012, dated 2016).
